## Percent effect of library compounds

Source: ChEMBL document CHEMBL3988442, “University of Dundee, Small-Polar-MMV Screening Library” (2021).

Toxoplasma: 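Assay of Toxoplasma gondii numbers, read through their beta-galactosidase reporter with a colour substrate. Concentration: 10 µM. Higher reads as fewer parasites (inferred from which compounds were picked for retests). Of about 67,000 compounds tested this way, about 260 (0.38%) reached 50% or more in at least one test.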
T. brucei: 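Whole-parasite assay of Trypanosoma brucei over 72 hours; the read-out is not stated. Tested at 30 µM. The record gives no direction; compounds that gave an IC50 in retests scored well above the rest, so higher reads as stronger inhibition. Values scatter widely below zero; nearly all retest evidence comes from the higher of the two concentrations used. About 64,000 compounds were tested under these conditions; 1.5% (about 940) showed 50% or more at least once.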
Leishmania in macrophages: 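Cell assay of Leishmania donovani living inside macrophages; the read-out is not stated. Concentration: 30 µM. The record gives no direction; compounds that gave an IC50 in retests scored well above the rest, so higher reads as stronger inhibition. Size under these conditions: about 69,000 compounds, about 1,000 of them at 50% or above in at least one test.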

Results are given as percent effect.
The controls that fix the scale are not given in the record; negative values are as filed.
This is an unselected part of the compounds tested.

Result for Cn1nnc2c(N3CC(C(=O)NCCC4=CCCCC4)C3)ncnc21 was Toxoplasma: 12.92%; T. brucei: -20.96%; Leishmania in macrophages: -7.407%. For COc1ccccc1C(C)CC(=O)N1CC[C@H](O)C1 (stereo partly shown) the result was Toxoplasma: -4.48%; Leishmania in macrophages: 5.433%. With CN(C)S(=O)(=O)NCc1cccnc1Oc1ccc(F)cc1F the screen gave Toxoplasma: -1.095%; T. brucei: 9.494%; Leishmania in macrophages: 8.798%. With CNc1ncc(CN(C)C(=O)c2cccc(Cn3cccn3)c2)cn1 the screen gave Toxoplasma: 8.58%; T. brucei: -8.011%; Leishmania in macrophages: -9.497%. CN(C)c1cnn(CC(=O)N2CCN(c3ccccc3)CC2)c(=O)c1 gave Toxoplasma: 2.489%; T. brucei: -9.909%; Leishmania in macrophages: 11.94%. For CCNC(=O)c1ncn2c1CN(C)S(=O)(=O)c1ccccc1-2 the result was Toxoplasma: 19.87%; T. brucei: -12.33%; Leishmania in macrophages: 8.879%. Result for COc1ccccc1C1(C(=O)NCCN2CCCCC2)CCOCC1 was Toxoplasma: -4.93%; T. brucei: -4.608%; Leishmania in macrophages: 12.33%. Result for [H][C@]12CC[C@@H](N(C)c3ccc(C)nn3)[C@@]1([H])CN(C(=O)C1CCOCC1)C2 was Toxoplasma: 7.106%; Leishmania in macrophages: 15.98%.

Result for COCCN(CCOC)C(=O)c1cnn(C)c1C was Toxoplasma: -5.996%; T. brucei: -28.69%; Leishmania in macrophages: -28.72%. CC1(C)Cc2cc(-c3cncn3CCNC3CCS(=O)(=O)C3)ccc2O1.Cl (stereo not shown) gave Leishmania in macrophages: 10.28%. For CN1CCN(Cc2cnc3n2CCN(C(=O)c2ccnnc2)C3)CC1 the result was Toxoplasma: -14.05%; T. brucei: -11.63%; Leishmania in macrophages: 25.46%. Result for CCCc1nc(C(=O)NCCCn2nnc3ccccc32)cs1 was Toxoplasma: -5.89%; T. brucei: -5.487%; Leishmania in macrophages: 23.28%. COc1cc(C(C)NCc2scnc2C)ccc1SC(F)F (stereo not shown) read Toxoplasma: 24.76%; T. brucei: -18.32%; Leishmania in macrophages: 23.27%. CCCS(=O)(=O)NCC1OCCc2cn(CC3CCOCC3)nc21 (stereo not shown) read Toxoplasma: 1.26%; T. brucei: -22.36%; Leishmania in macrophages: -19.32%. For Cc1nn(C)cc1CN(C)C(=O)c1ccncc1 the result was Toxoplasma: 18.39%; Leishmania in macrophages: -4.075%. For CCn1ccnc1CN1CCCn2nc(CNC(=O)C3CCC3)cc2C1 the result was Toxoplasma: -2.595%; T. brucei: -29.13%; Leishmania in macrophages: -26.14%.

Result for Cc1nc(CN2CCc3ncnc(C4CCOC4)c3CC2)cs1.O=C(O)C(F)(F)F (stereo not shown) was Toxoplasma: 4.557%; T. brucei: 6.268%; Leishmania in macrophages: -6.065%. Result for CC(C)S(=O)(=O)C(C)C(=O)NCc1ccccc1OCc1ccccc1 (stereo not shown) was Toxoplasma: 21.32%; T. brucei: -63.27%; Leishmania in macrophages: -5.069%. Cn1ccnc1-c1cn(CCCc2csc(N)n2)nn1 gave Toxoplasma: -0.1354%; T. brucei: -52.23%; Leishmania in macrophages: 34.79%. CCn1cnnc1CCNc1nc(C)cc(C)c1C#N read Toxoplasma: -21.05%; T. brucei: 19.35%; Leishmania in macrophages: -5.075%. COCCOCC(=O)Nc1ccc(Br)cc1F read Toxoplasma: -2.564%; T. brucei: 13.52%; Leishmania in macrophages: 2.674%. With O=C(Nc1ccnc(OC2CCOC2)c1)c1ccc(F)cc1Cl (stereo not shown) the screen gave Toxoplasma: 1.138%; T. brucei: -35.48%; Leishmania in macrophages: 0.2831%. With CS(=O)(=O)N[C@@H]1CCN(Cc2nccs2)[C@H]1Cc1ccncc1.O=C(O)C(F)(F)F.O=C(O)C(F)(F)F the screen gave Toxoplasma: 2.074%; T. brucei: -26.72%; Leishmania in macrophages: 27.71%. With O=C(O)C(F)(F)F.O=C(O)C(F)(F)F.[H][C@@]12CN(CC3CC3)C[C@]1([H])[C@H](OC)CCN2S(=O)(=O)c1cccnc1 the screen gave Toxoplasma: -0.571%; T. brucei: -131.4%; Leishmania in macrophages: 12.7%.

COc1ccccc1C(=O)N1CCNCC1C(N)=O.Cl (stereo not shown) gave Toxoplasma: -12.26%; T. brucei: -19.89%; Leishmania in macrophages: 26.47%. For O=S(=O)(Cc1ccccc1F)NC(CO)c1ccco1 (stereo not shown) the result was Toxoplasma: 0.6952%; T. brucei: -3.375%; Leishmania in macrophages: -1.04%. CCOCC(O)CN1CCN(C(=O)c2ccc3c(c2)COC3)CC1 (stereo not shown) read Toxoplasma: 12.15%; Leishmania in macrophages: 26.72%. For O=C(Cn1cc(-c2ccccc2)cn1)N1CCNC1=O the result was Toxoplasma: -0.1354%; T. brucei: -37.94%; Leishmania in macrophages: -48.05%.

3 of the entries, repeated:

structure	Toxoplasma	T. brucei	Leishmania in macrophages
COc1ccccc1C1(C(=O)NCCN2CCCCC2)CCOCC1	-4.93%	-4.608%	12.33%
CNc1ncc(CN(C)C(=O)c2cccc(Cn3cccn3)c2)cn1	8.58%	-8.011%	-9.497%
CN(C)c1cnn(CC(=O)N2CCN(c3ccccc3)CC2)c(=O)c1	2.489%	-9.909%	11.94%